Assay: Extraction of amelogenin from titanium hydride implant layer, SDS-PAGE / western blot (Example 1)
Conditions: electrolysis 18 hours, pH 4, 70° C.
Text: A two-chamber electrolysis cell was used to prepare a layer of titanium hydride containing the extracellular matrix molecule amelogenin onto five coin-shaped electropolished titanium implants each with a surface area of 0.6 cm^2 exposed to the electrolyte. Five similar items were used as controls by being present in the electrolyte chamber, but not connected to the electrolysis current. The electrolyte in both chambers was 1M NaCl in sterile water, pH adjusted to pH 4 by the use of HCl, and the initial concentration of amelogenin was 0.1 mg/ml. For electrolysis a voltage of 10 volts at a charge density of 1 mA/cm^2 was used. The temperature of the cathode chamber was set to 70° C. Electrolysis was allowed to progress for 18 hours, after which the titanium implants were removed from the electrolysis cell, washed in sterile water and allowed to air-dry in a desiccator.
After drying the titanium test and control specimens were each washed three times in 1 ml saline at pH 6.5. […] Amelogenin proteins were then detected by an immune assay using an rabbit amelogenin specific primary IgG antibody and a biotin labelled goat anti rabbit IgG secondary antibody.

amelogenin
amelogenins present in extracts from test specimens (western blot) (0.1 mg/ml amelogenin, after three saline washes, boiled in 2×SDS-PAGE sample buffer): significant amounts | amount of protein extracted from titanium hydride surface layer (by comparison with an amelogenin standard): 50 μg/cm^2

Reference: US9168141B2, “Medical prosthetic devices and implants having improved biocompatibility” (Astra Tech AB, priority 2000, dated 2015)
